Some entries share one result that the patent states for a list of compounds.
The molecules below were run against T1, Bcl-b (Homo sapiens, UniProt Q9HD36) (assay: Bclb/Bim fluorescence polarization assay (FPA)). Settings: BIM BH3 peptide 5 nM, Bcl-b 40 nM, Ki calculated from FPA data.
T1 construct: without their C-terminal transmembrane domain; GST; made in house
T1 sequence (Q9HD36 1-182 limits assumed): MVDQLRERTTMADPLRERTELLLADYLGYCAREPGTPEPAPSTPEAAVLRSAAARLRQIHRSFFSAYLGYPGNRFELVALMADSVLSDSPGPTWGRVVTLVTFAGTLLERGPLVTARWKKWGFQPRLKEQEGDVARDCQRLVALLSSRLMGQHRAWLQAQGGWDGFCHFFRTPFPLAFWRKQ
Format: binding

Ki, ≤ 10 µM:
O=S(=O)(NCc1ccc(CN(Cc2ccc(F)cc2)S(=O)(=O)c2cc(Cl)cc(Cl)c2O)cc1)c1cc(Cl)cc(Cl)c1 [Example 98, 3,5-Dichloro-N-(4-((3,5-dichlorophenylsulfonamido)methyl)benzyl)-N-(4-fluorobenzyl)-2-hydroxybenzenesulfonamide]
O=S(=O)(c1cc(Cl)cc(Cl)c1O)N(Cc1ccc(F)cc1)Cc1ccc(CNCc2ccc(F)cc2)cc1 [Example 99]
O=S(=O)(c1ccc(C(F)(F)F)nc1)N(Cc1ccc(F)cc1)Cc1ccc(CN(Cc2ccc(F)cc2)S(=O)(=O)c2cc(Cl)cc(Cl)c2O)cc1 [Example 100, N-(4-((3,5-Dichloro-N-(4-fluorobenzyl)-2-hydroxyphenylsulfonamido)methyl)benzyl)-N-(4-fluorobenzyl)-6-(trifluoromethyl)pyridine-3-sulfonamide]
Cc1ccc(S(=O)(=O)NCc2cccc(CN(Cc3ccc(-c4ccccc4)cc3)S(=O)(=O)c3cc(Cl)cc(Cl)c3O)c2)cc1 [Example 101, N-(Biphenyl-4-ylmethyl)-3,5-dichloro-2-hydroxy-N-(3-((4-methylphenylsulfon-amido)methyl)benzyl)ben-zenesulfonamide]
O=S(=O)(c1cc(Cl)cc(Cl)c1)N(Cc1ccc(F)cc1)Cc1cccc(CN(Cc2cccc3ccccc23)S(=O)(=O)c2cc(Cl)cc(Cl)c2O)c1 [Example 102, 3,5-Dichloro-N-(3-((3,5-dichloro-N-(4-fluorobenzyl)phenylsulfonamido)-methyl)benzyl)-2-hydroxy-N-(naphthalen-1-ylmethyl)-benzenesulfonamide]
O=C(c1cc(Cl)cc(CN(CCc2ccc(F)cc2)S(=O)(=O)c2cc(Cl)cc(Cl)c2O)c1)N(Cc1ccc(F)cc1)Cc1cc(Cl)cc(Cl)c1 [Example 105, 3-Chloro-5-((3,5-dichloro-N-(4-fluorophenethyl)-2-hydroxyphenylsulfonamido)methyl)-N-(3,5-dichlorobenzyl)-N-(4-fluorobenzyl)benzamide]
O=C(c1ccc(CN(Cc2ccc(F)cc2)S(=O)(=O)c2cc(Cl)cc(Cl)c2O)cc1)N(Cc1ccc(F)cc1)Cc1cc(Cl)cc(Cl)c1 [Example 106, 4-((3,5-Dichloro-N-(4-fluorobenzyl)-2-hydroxyphenylsulfonamido)methyl)-N-(3,5-dichlorobenzyl)-N-(4-fluorobenzyl)benzamide]
CC(C)N(Cc1ccccc1)C(=O)c1ccc(CN(Cc2ccc(F)cc2)S(=O)(=O)c2cc(Cl)cc(Cl)c2O)cc1 [Example 107, N-Benzyl-4-((3,5-dichloro-N-(4-fluorobenzyl)-2-hydroxyphenylsulfonamido)methyl)-N-isopropylbenzamide]
CN(Cc1ccccc1)C(=O)c1ccc(CN(Cc2ccc(F)cc2)S(=O)(=O)c2cc(Cl)cc(Cl)c2O)cc1 [Example 108, N-Benzyl-4-((3,5-dichloro-N-(4-fluorobenzyl)-2-hydroxyphenylsulfonamido)methyl)-N-methylbenzamide]
CCCCN(CCCC)C(=O)c1ccc(CN(Cc2ccc(F)cc2)S(=O)(=O)c2cc(Cl)cc(Cl)c2O)cc1 [Example 109, N,N-Dibutyl-4-((3,5-dichloro-N-(4-fluorobenzyl)-2-hydroxyphenylsulfonamido)methyl)-benzamide]
CC(C)CCN(Cc1ccc(F)cc1)C(=O)c1ccc(CN(Cc2ccc(F)cc2)S(=O)(=O)c2cc(Cl)cc(Cl)c2O)cc1 [Example 110, 4-((3,5-Dichloro-N-(4-fluorobenzyl)-2-hydroxyphenylsulfonamido)methyl)-N-(4-fluorobenzyl)-N-isopentylbenzamide]
O=C(c1ccc(CN(Cc2ccc(F)cc2)S(=O)(=O)c2cc(Cl)cc(Cl)c2O)cc1)N(Cc1ccc(F)cc1)C1CCCC1 [Example 111, N-Cyclopentyl-4-((3,5-dichloro-N-(4-fluorobenzyl)-2-hydroxyphenylsulfonamido)methyl)-N-(4-fluorobenzyl)benzamide]
O=C(c1ccc(CN(Cc2ccc(F)cc2)S(=O)(=O)c2cc(Cl)cc(Cl)c2O)cc1)N(Cc1ccc(F)cc1)C1CC1 [Example 112, N-Cyclopropyl-4-((3,5-dichloro-N-(4-fluorobenzyl)-2-hydroxyphenylsulfonamido)methyl)-N-(4-fluorobenzyl)benzamide]
CC(C)N(Cc1ccc(F)cc1)C(=O)c1ccc(CN(Cc2ccc(F)cc2)S(=O)(=O)c2cc(Cl)cc(Cl)c2O)cc1 [Example 113, 4-((3,5-Dichloro-N-(4-fluorobenzyl)-2-hydroxyphenylsulfonamido)methyl)-N-(4-fluorobenzyl)-N-isopropylbenzamide]
O=C(c1ccc(CN(Cc2ccc(F)cc2)S(=O)(=O)c2cc(Cl)cc(Cl)c2O)cc1)N(CCO)Cc1ccc(F)cc1 [Example 114, 4-((3,5-Dichloro-N-(4-fluorobenzyl)-2-hydroxyphenylsulfonamido)methyl)-N-(4-fluorobenzyl)-N-(2-hydroxyethyl)benzamide]
CC(C)CN(Cc1ccc(F)cc1)C(=O)c1ccc(CN(Cc2ccc(F)cc2)S(=O)(=O)c2cc(Cl)cc(Cl)c2O)cc1 [Example 115, 4-((3,5-Dichloro-N-(4-fluorobenzyl)-2-hydroxyphenylsulfonamido)methyl)-N-(4-fluorobenzyl)-N-isobutylbenzamide]
O=C(c1ccc(CN(Cc2ccc(F)cc2)S(=O)(=O)c2cc(Cl)cc(Cl)c2O)cc1)N(Cc1ccc(F)cc1)CC1CC1 [Example 116, N-(Cyclopropylmethyl)-4-((3,5-dichloro-N-(4-fluorobenzyl)-2-hydroxyphenylsulfonamido)methyl)-N-(4-fluorobenzyl)benzamide]
O=C(c1ccc(CN(Cc2ccc(F)cc2)S(=O)(=O)c2cc(Cl)cc(Cl)c2O)cc1)N(Cc1ccc(F)cc1)Cc1cccnc1 [Example 117, 4-((3,5-Dichloro-N-(4-fluorobenzyl)-2-hydroxyphenylsulfonamido)methyl)-N-(4-fluorobenzyl)-N-(pyridin-3-ylmethyl)benzamide]
O=C(c1ccc(CN(Cc2ccc(F)cc2)S(=O)(=O)c2cc(Cl)cc(Cl)c2O)cc1)N(CCN1CCOCC1)Cc1ccc(F)cc1 [Example 118, 4-((3,5-Dichloro-N-(4-fluorobenzyl)-2-hydroxyphenylsulfonamido)methyl)-N-(4-fluorobenzyl)-N-(2-morpholinoethyl)benzamide]
CN(C)c1ccc(N(Cc2ccc(F)cc2)C(=O)c2ccc(CN(Cc3ccc(F)cc3)S(=O)(=O)c3cc(Cl)cc(Cl)c3O)cc2)cc1 [Example 119, 4-((3,5-Dichloro-N-(4-fluorobenzyl)-2-hydroxyphenylsulfonamido)methyl)-N-(4-(dimethylamino)phenyl)-N-(4-fluorobenzyl)benzamide]
CC(C)CCN(C)C(=O)c1ccc(CN(Cc2ccc(F)cc2)S(=O)(=O)c2cc(Cl)cc(Cl)c2O)cc1 [Example 120, 4-((3,5-Dichloro-N-(4-fluorobenzyl)-2-hydroxyphenylsulfonamido)methyl)-N-isopentyl-N-methylbenzamide]
O=C(NCCc1nc2ccccc2s1)c1ccc(CN(Cc2ccc(F)cc2)S(=O)(=O)c2cc(Cl)cc(Cl)c2O)cc1 [Example 121, N-(2-(Benzo[d]thiazol-2-yl)ethyl)-4-((3,5-dichloro-N-(4-fluorobenzyl)-2-hydroxyphenylsulfonamido)methyl)-benzamide]
O=C(c1ccc(CN(Cc2ccc(F)cc2)S(=O)(=O)c2cc(Cl)cc(Cl)c2O)cc1)N1CCC(c2ccccc2)CC1 [Example 122, 3,5-Dichloro-N-(4-fluorobenzyl)-2-hydroxy-N-(4-(4-phenylpiperidine-1-carbonyl)benzyl)benzenesulfonamide]
O=C(c1ccc(CN(Cc2ccc(F)cc2)S(=O)(=O)c2cc(Cl)cc(Cl)c2O)cc1)N1CCC(Cc2ccccc2)CC1 [Example 123, N-(4-(4-Benzylpiperidine-1-carbonyl)benzyl)-3,5-dichloro-N-(4-fluorobenzyl)-2-hydroxybenzenesulfonamide]
O=C(NCC(c1ccccc1)c1ccccc1)c1ccc(CN(Cc2ccc(F)cc2)S(=O)(=O)c2cc(Cl)cc(Cl)c2O)cc1 [Example 124, 4-((3,5-Dichloro-N-(4-fluorobenzyl)-2-hydroxyphenylsulfonamido)methyl)-N-(2,2-diphenylethyl)benzamide]
O=C(c1ccc(CN(Cc2ccc(F)cc2)S(=O)(=O)c2cc(Cl)cc(Cl)c2O)cc1)N1CCN(c2ccccc2Cl)CC1 [Example 125, 3,5-Dichloro-N-(4-(4-(2-chlorophenyl)piperazine-1-carbonyl)benzyl)-N-(4-fluorobenzyl)-2-hydroxybenzenesulfonamide]
O=C(NCc1cccc(-c2ccccc2)c1)c1ccc(CN(Cc2ccc(F)cc2)S(=O)(=O)c2cc(Cl)cc(Cl)c2O)cc1 [Example 126, N-(Biphenyl-3-ylmethyl)-4-((3,5-dichloro-N-(4-fluorobenzyl)-2-hydroxyphenylsulfonamido)methyl)-benzamide]
O=C(NCc1ccc(-c2ccccc2)cc1)c1ccc(CN(Cc2ccc(F)cc2)S(=O)(=O)c2cc(Cl)cc(Cl)c2O)cc1 [Example 127, N-(Biphenyl-4-ylmethyl)-4-((3,5-dichloro-N-(4-fluorobenzyl)-2-hydroxyphenylsulfonamido)methyl)-benzamide]
O=C(NC1CCCCC1)c1ccc(CN(Cc2ccc(F)cc2)S(=O)(=O)c2cc(Cl)cc(Cl)c2O)cc1 [Example 128, N-Cyclohexyl-4-((3,5-dichloro-N-(4-fluorobenzyl)-2-hydroxyphenylsulfonamido)methyl)-benzamide]
O=C(c1ccc(CN(Cc2ccc(F)cc2)S(=O)(=O)c2cc(Cl)cc(Cl)c2O)cc1)N1CCN(c2ccccc2)CC1 [Example 129, 3,5-Dichloro-N-(4-fluorobenzyl)-2-hydroxy-N-(4-(4-phenylpiperazine-1-carbonyl)benzyl)benzenesulfonamide]

Reference: patent publication US8501992B2, “Hydroxyphenyl sulfonamides as antiapoptotic bcl inhibitors” (Bristol-Myers Squibb Company, priority 2008, dated 2013)
